Binding data for one substance are collected here from article doi:10.1101/465930.

Sequences of proteins named here, by UniProt entry; tags and fusion partners are left off. Residues count along the entry.
UniProt P16092, residues 22-822: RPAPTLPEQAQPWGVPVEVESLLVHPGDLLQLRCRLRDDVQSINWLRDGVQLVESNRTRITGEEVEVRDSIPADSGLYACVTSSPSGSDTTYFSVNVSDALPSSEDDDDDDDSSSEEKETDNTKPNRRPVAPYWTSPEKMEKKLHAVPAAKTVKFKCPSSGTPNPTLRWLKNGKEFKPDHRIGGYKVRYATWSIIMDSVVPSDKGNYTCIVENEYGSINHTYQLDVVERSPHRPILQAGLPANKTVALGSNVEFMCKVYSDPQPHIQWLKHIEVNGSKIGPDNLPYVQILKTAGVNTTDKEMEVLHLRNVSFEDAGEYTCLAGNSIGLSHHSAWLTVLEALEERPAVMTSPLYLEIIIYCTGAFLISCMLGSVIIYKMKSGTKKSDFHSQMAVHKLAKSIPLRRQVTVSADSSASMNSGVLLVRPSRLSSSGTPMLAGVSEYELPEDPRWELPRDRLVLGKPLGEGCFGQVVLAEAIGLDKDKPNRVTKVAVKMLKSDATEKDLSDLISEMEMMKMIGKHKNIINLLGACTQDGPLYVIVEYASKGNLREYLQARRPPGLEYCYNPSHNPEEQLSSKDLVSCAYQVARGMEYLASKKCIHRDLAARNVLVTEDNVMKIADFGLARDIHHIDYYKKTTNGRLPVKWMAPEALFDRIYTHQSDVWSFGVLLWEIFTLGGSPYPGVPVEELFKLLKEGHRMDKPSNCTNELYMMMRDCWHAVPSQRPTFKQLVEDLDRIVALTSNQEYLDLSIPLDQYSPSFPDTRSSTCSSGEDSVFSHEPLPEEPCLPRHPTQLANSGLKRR

These are yes or no findings as the source states them, for the method shown. For some assays here: In cells and extracts the contact can be indirect. Some entries that bind do so weakly or less than the wild type. For some assays here: Tags and fused reporters may be left off the sequences shown.

One assay has as its target GFP-FGFR1 (mouse) (UniProt P16092). Nature of the assay: co-IP.
Another assay deals with T1, Ncad-Fc (UniProt P19022).
T1 sequence: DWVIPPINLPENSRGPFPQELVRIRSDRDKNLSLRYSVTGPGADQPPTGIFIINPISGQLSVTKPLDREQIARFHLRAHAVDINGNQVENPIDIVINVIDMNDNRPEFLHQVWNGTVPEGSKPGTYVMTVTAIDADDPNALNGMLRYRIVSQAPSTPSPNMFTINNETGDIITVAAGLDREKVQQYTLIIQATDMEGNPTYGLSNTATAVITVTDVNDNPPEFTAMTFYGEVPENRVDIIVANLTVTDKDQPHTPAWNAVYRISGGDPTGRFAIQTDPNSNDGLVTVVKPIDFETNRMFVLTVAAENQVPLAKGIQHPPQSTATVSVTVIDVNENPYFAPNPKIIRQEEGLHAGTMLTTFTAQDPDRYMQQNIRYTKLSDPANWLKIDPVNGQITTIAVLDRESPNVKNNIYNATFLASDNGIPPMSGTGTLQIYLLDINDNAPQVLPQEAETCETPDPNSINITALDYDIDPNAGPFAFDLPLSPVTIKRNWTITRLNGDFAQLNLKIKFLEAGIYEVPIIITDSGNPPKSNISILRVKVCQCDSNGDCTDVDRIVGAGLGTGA
In words: cell adhesion to a coated surface.

On to “DsRed-Ncad (from UniProt P15116 160-906)”, for which the binding entry with GFP-FGFR1 (mouse) and with Ncad-Fc was “binds” throughout.
